Measurements reported in PMC9166362, “Early midcell localization of Escherichia coli PBP4 supports the function of peptidoglycan amidases” (PLoS Genetics, 2022).
Results are given in words; binding and its absence hold for the method and conditions named. For some of these results: Binding calls can cover weak binding; strength is not graded here. For some of these results: Where a sequence is shown, tags or fusion partners need not be part of it. Values belong to the molecule of their own block, whether it stands above or below them.

Amino acid sequences for entries named in this document (tags omitted). A change or cut given only in a name is not applied to a line headed by its entry.
UniProt P24228: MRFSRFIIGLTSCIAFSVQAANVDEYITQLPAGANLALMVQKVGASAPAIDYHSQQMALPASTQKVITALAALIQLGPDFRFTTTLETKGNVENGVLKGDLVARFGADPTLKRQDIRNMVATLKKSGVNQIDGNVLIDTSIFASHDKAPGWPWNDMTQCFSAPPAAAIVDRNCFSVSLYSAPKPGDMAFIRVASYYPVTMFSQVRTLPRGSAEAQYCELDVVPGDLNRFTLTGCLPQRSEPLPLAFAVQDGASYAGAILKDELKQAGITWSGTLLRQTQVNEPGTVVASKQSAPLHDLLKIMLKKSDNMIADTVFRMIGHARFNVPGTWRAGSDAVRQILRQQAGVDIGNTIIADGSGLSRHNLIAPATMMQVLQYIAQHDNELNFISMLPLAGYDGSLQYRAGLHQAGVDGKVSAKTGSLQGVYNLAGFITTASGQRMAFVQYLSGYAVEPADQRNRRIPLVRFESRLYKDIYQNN

Tests used:
[1] = target: T1, NlpI, soluble, as used in microscale thermophoresis (E. coli) (UniProt P0AFB1); experiment: MST; one protein fluorescently labelled (NT-647 dye) at a fixed concentration, two-fold serial dilution of unlabelled ligand over 16 samples; 25 mM HEPES/NaOH, 150 mM NaCl, 0.05% Triton X-100, pH 7.5; Monolith NT.115; apparent KD; both purified
T1 sequence: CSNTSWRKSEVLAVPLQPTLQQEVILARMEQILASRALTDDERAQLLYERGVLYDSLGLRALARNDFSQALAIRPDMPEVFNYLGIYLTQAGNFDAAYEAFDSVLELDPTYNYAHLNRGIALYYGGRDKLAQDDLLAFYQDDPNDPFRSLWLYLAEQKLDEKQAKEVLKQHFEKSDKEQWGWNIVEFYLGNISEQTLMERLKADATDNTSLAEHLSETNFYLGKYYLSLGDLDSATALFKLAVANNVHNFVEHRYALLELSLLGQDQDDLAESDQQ

[2] = target: T2, LpoA^N, N-terminal domain of LpoA (residues G28-T256) (E. coli) (UniProt P45464); experiment: as above
T2 sequence: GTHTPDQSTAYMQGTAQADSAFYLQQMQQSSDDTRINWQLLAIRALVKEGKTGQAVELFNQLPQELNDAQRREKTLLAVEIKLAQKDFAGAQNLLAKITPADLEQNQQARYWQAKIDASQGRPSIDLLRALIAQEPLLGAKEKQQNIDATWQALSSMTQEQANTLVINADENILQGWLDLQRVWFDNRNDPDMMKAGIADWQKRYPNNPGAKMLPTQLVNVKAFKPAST

[3] = target: T3, LpoA^C, C-terminal domain of LpoA (residues N257-S678) (E. coli) (UniProt P45464); experiment: as above
T3 sequence: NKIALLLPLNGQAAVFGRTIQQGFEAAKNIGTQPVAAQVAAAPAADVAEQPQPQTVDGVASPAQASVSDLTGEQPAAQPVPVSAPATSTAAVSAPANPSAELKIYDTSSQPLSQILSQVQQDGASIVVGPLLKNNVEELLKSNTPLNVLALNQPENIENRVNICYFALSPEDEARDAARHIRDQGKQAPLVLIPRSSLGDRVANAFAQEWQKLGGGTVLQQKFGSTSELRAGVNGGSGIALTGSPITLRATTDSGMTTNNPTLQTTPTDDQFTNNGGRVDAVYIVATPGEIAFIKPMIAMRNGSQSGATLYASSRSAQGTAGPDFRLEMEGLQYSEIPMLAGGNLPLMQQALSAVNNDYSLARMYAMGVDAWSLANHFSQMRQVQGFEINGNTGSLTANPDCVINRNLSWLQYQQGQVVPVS

[4] = target: T4, EnvC, soluble version without the N-terminal 34 amino acid signal peptide (E. coli) (UniProt P37690); experiment: as above
T4 sequence: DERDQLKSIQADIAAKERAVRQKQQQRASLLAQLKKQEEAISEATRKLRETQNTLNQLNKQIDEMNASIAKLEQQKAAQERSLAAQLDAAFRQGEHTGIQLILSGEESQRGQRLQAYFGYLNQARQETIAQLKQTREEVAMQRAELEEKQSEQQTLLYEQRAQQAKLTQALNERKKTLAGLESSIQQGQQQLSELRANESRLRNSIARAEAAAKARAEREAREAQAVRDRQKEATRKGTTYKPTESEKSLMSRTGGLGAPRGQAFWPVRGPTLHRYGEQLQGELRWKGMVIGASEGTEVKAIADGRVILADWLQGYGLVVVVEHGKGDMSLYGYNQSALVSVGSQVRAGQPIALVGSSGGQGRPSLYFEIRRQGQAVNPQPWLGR

[5] = target: T5, PBP1A, purified (full length His-PBP1A) (E. coli) (UniProt P02918); experiment: as above
T5 sequence: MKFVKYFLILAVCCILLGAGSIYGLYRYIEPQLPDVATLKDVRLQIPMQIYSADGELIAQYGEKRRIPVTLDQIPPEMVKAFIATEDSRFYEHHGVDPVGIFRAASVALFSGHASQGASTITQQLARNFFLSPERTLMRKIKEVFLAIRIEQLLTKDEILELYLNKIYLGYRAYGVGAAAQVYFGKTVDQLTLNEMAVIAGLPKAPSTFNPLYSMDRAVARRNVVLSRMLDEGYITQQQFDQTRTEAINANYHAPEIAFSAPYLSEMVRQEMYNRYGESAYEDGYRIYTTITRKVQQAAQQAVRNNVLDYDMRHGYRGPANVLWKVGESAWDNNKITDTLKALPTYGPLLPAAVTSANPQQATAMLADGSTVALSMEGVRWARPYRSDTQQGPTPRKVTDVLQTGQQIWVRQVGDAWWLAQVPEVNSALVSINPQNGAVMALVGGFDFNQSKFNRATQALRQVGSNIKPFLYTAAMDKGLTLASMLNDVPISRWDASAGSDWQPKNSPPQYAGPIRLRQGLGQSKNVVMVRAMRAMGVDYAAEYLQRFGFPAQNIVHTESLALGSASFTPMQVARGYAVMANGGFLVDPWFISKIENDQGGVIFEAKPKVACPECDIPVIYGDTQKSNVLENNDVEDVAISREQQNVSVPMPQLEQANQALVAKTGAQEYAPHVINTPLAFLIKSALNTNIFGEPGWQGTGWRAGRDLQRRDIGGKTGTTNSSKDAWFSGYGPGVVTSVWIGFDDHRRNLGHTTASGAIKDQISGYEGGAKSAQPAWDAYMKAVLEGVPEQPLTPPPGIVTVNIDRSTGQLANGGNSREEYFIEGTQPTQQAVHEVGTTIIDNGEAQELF

[6] = target: PBP4ΔD3 (PBP4 lacking domain 3), His-tagged (E. coli) (UniProt P24228); experiment: pull-down; Ni-NTA beads; equimolar (1–2 μM) His-tagged and untagged proteins; 10 mM HEPES/NaOH, 10 mM MgCl2, 150 mM NaCl, 0.05% Triton X-100, pH 7.5, 4°C; washes with 30 mM imidazole; SDS-PAGE; His-NlpI also with PBP4 and EnvC together; both purified

binding [1]: binds
Molecule: LytM domain of EnvC (EnvC-LytM) (E. coli) (domain or fragment)

binding [2]: binds
binding [1]: no binding
binding [3]: binds
binding [4]: no binding (tested: KD > 5900±2823 nM)
binding [5]: binds
Molecule: PBP4ΔD3 (PBP4 lacking domain 3), His-tagged (from UniProt P24228) (enzyme)

binding [6]: no binding (tested: 1–2 μM)
B1: untagged NlpI (soluble) (protein, UniProt P0AFB1 19-294)
chain: T1 sequence
